These results are taken from patent US6825317B2 (Sumitomo Pharmaceuticals Company, Limited, priority 1999, dated 2004).

The series in a line: general procedure: solution-phase peptide synthesis; BOP/HOBt with Et3N; HATU/DIEA for cyclisation. The conditions noted are these: for cyclisation yield: cyclisation step; for final purity (method not given): HPLC.

Regarding Boc-L-Asu(OBzl)-Aib-L-Phe-D-Pro-OtBu, the step yield (coupling step) came to 72%. Turning to Cyclo(-L-Asu(OBzl)-Aib-L-Phe-D-Pro-), the cyclisation yield was 61%.

Under “late stage modification step”, Cyclo(-L-Asu-Aib-L-Phe-D-Pro-) showed a step yield of 97%. In turn, H-L-Asu(OBzl)-Aib-L-Phe-D-Pro-OH.TFA showed a step yield (late stage modification step) of 78%.

Take cyclo(-L-Asu(NHOH)-Aib-L-Phe-D-Pro-): the step yield (late stage modification step) was 74%. Consider cyclo(-L-Asu(NHOH)-D-Cha-L-Ile-D-Pip-), for which, for the setting “late stage modification step”, the “final purity (method not given)” value is “purity 100%”.

Turning to cyclo(-L-Asu(NHOH)-D-Cha-L-Ile-L-Pip-), the “final purity (method not given)” value (late stage modification step) is recorded as “purity 93%”.

Regarding cyclo(-L-Asu(OBzl)-D-Cha-L-Ile-D-Pip-), the cyclisation yield entry is given as “yield 18%”. Regarding cyclo(-L-Asu(OH)-D-Cha-L-Ile-D-Pip-), under “late stage modification step”, the step yield entry is given as “yield 85%”.
